Paper PMC4997316, “A ruthenium polypyridyl intercalator stalls DNA replication forks, radiosensitizes human cancer cells and is enhanced by Chk1 inhibition” (Scientific Reports, 2016)

System: HeLa cells
Experiment: subcellular Ru distribution by ICP-MS
Type: cell-based, human
Settings: 40 μM, 24 h; for Ru in cytosol/cytoskeletal component: share of total Ru content

SMILES: Oc1ccc(-c2nc3c4cccnc4c4ncccc4c3[nH]2)cc1.[Ru+2].c1ccc2nc3c4cccnc4c4ncccc4c3nc2c1.c1ccc2nc3c4cccnc4c4ncccc4c3nc2c1 [Complex 2, [Ru(dppz)2(p-HPIP)]^2+]
- nuclear uptake, share of total Ru content: ~ 20%
- Ru in cytosol/cytoskeletal component: 52%

SMILES: [Ru+2].c1ccc(-c2nc3c4cccnc4c4ncccc4c3[nH]2)cc1.c1ccc2nc3c4cccnc4c4ncccc4c3nc2c1.c1ccc2nc3c4cccnc4c4ncccc4c3nc2c1 [Complex 1, [Ru(dppz)2(PIP)]^2+]
- nuclear uptake, share of total Ru content: ~ 20%
- Ru in cytosol/cytoskeletal component: 58%
